Two sequences from publication PMC8103094, “Androgen receptor (AR) antagonism triggers acute succinate‐mediated adaptive responses to reactivate AR signaling” can be followed below.

For at least one entry, the source does not settle the construct or the ends of the probe. Weaker means in comparison with the reference protein, sequence or condition of that experiment. Where a protein sequence is shown, tags need not be part of it.

This data set has as its target T1, Androgen receptor DNA-binding domain (AR-DBD) (UniProt P10275).
T1 sequence (looked up, limits assumed): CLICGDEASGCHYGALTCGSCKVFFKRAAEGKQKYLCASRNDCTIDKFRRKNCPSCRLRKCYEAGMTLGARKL
Kind of data set: EMSA. The settings on record: Odyssey infrared EMSA kit (LI-COR): 2.5 mM DTT/0.25% Tween 20, poly(dI.dC), room temperature 30 min, increasing protein; 6% TBE native gel; salt and pH not stated; recombinant protein; label: 5' IRDye700 on both strands. (A gel shift assay detects complexes by their altered migration in electrophoresis.)

Turning to “AGAGCTCCCTACGTTTTCCCAACA (double strand) [SDHB ARE mutant probe (SDHB-M)]”, the binding result is recorded as “binds more weakly”.

For the sequence “GCGACTTACATTGGCTGAGGGA (double strand) [SDHA ARE mutant probe (SDHA-M)]”, the binding result is reported as “binds more weakly”.
